# The supplement of paper PMC5393889
# Some of the results follow.
# Test system: Caenorhabditis elegans N2
# Assay: aldicarb interaction hit call (worm growth perturbed in combination with 10 uM aldicarb in both replicates, no effect as single agent) (binary (1 = interacts)); higher = interacts with aldicarb (growth perturbed)
# Details: first compound 1.5 µM; aldicarb concentration 10 µM; 6 days; 20 °C
row,SMILES,aldicarb interaction hit call
1,Cl.c1ccc(-c2ccc(OCCCCN3CCOCC3)cc2)cc1 [wact-146] + CNC(=O)O/N=C/C(C)(C)SC [aldicarb],inactive: 0
2,CCn1ccnc1CN1CCCC(C(=O)c2ccc(-c3ccccc3)cc2)C1 (configuration not stated) [wact-296] + CNC(=O)O/N=C/C(C)(C)SC [aldicarb],inactive: 0
3,COC(=O)C1=C(C)NC2=C(C(=O)CC(c3cccs3)C2)C1c1cccc(O)c1 (configuration not stated) [wact-468] + CNC(=O)O/N=C/C(C)(C)SC [aldicarb],inactive: 0
4,Brc1cccc(CSc2nnc(-c3ccco3)o2)c1 [wact-63] + CNC(=O)O/N=C/C(C)(C)SC [aldicarb],inactive: 0
5,CCC1CCC(N2CCN(c3ccc([N+](=O)[O-])cc3)CC2)CC1 (configuration not stated) [wact-6] + CNC(=O)O/N=C/C(C)(C)SC [aldicarb],inactive: 0
6,O=C(Nc1nc2ccccc2[nH]1)c1ccco1 [wact-626] + CNC(=O)O/N=C/C(C)(C)SC [aldicarb],inactive: 0
7,Cc1ccc2nc(-c3ccc(/N=C/c4c[nH]c5ccccc45)cc3)sc2c1 [wact-394] + CNC(=O)O/N=C/C(C)(C)SC [aldicarb],inactive: 0
8,C=CCN(CC=C)c1ncnc2ccc(Br)cc12.Cl [wact-492] + CNC(=O)O/N=C/C(C)(C)SC [aldicarb],inactive: 0
9,O=C(c1ccccc1[N+](=O)[O-])N1CCN(c2ccc(Cl)c(Cl)c2)CC1 [wact-88] + CNC(=O)O/N=C/C(C)(C)SC [aldicarb],inactive: 0
10,Nc1ccc2oc(-c3ccc(Cl)c(Cl)c3)nc2c1 [wact-386] + CNC(=O)O/N=C/C(C)(C)SC [aldicarb],inactive: 0
11,Clc1ccc(Cc2nc(-c3cccs3)no2)cc1 [wact-566] + CNC(=O)O/N=C/C(C)(C)SC [aldicarb],inactive: 0
12,C#CCOc1c(Cl)cc(/C=C(\Cl)c2nc(-c3ccsc3)no2)cc1OC [wact-347] + CNC(=O)O/N=C/C(C)(C)SC [aldicarb],inactive: 0
13,Cl.Clc1cc(Br)ccc1OCCCN1CCNCC1 [wact-85] + CNC(=O)O/N=C/C(C)(C)SC [aldicarb],inactive: 0
14,CCCCSc1nnc(-c2ccc(Cl)cc2Cl)o1 [wact-39] + CNC(=O)O/N=C/C(C)(C)SC [aldicarb],inactive: 0
15,Cc1cccc(NC(=S)Nc2cc(C)cc(C)c2)c1 [wact-529] + CNC(=O)O/N=C/C(C)(C)SC [aldicarb],inactive: 0
16,CN(CC1CC=CCC1)CC1CCN(CCc2cccc(F)c2)CC1 (configuration not stated) [wact-259] + CNC(=O)O/N=C/C(C)(C)SC [aldicarb],inactive: 0
17,O=C(c1cc(COc2ccc(F)cc2Cl)on1)N1CCC(c2ccncc2)CC1 [dafadine-B] + CNC(=O)O/N=C/C(C)(C)SC [aldicarb],inactive: 0
18,C#CCSc1nnc(-c2ccccc2)o1 [wact-345] + CNC(=O)O/N=C/C(C)(C)SC [aldicarb],inactive: 0
19,Cc1ccc(N2CCN(C/C=C/c3ccccc3)CC2)cc1 [wact-44] + CNC(=O)O/N=C/C(C)(C)SC [aldicarb],inactive: 0

row,SMILES,aldicarb interaction hit call
1,Cl.c1ccc(COc2cccc(CNCc3cccs3)c2)cc1 [wact-118] + CNC(=O)O/N=C/C(C)(C)SC [aldicarb],inactive: 0
2,C#CCSc1nnc(-c2ccc(Br)cc2)o1 [wact-209] + CNC(=O)O/N=C/C(C)(C)SC [aldicarb],inactive: 0
3,Clc1ccc(Cn2nnc(-c3ccncc3)n2)cc1Cl [wact-575] + CNC(=O)O/N=C/C(C)(C)SC [aldicarb],inactive: 0
4,CCCN1CCC(C(=O)Nc2cccc(-c3cccc(F)c3)c2)CC1 [wact-320] + CNC(=O)O/N=C/C(C)(C)SC [aldicarb],inactive: 0
5,Cc1sc2ncnc(NCCc3ccccc3)c2c1C [wact-429] + CNC(=O)O/N=C/C(C)(C)SC [aldicarb],inactive: 0
6,CC(C)COc1ccc(-c2nc(-c3cccnc3)no2)cc1 [wact-558] + CNC(=O)O/N=C/C(C)(C)SC [aldicarb],inactive: 0
7,COc1ccc(-c2noc(-c3ccccc3)n2)cc1 [wact-574] + CNC(=O)O/N=C/C(C)(C)SC [aldicarb],inactive: 0
8,CC(=O)NC(=S)Nc1ccc(Cl)cc1 [wact-472] + CNC(=O)O/N=C/C(C)(C)SC [aldicarb],inactive: 0
9,O=C(Nc1ccc(N2CCN(C(=O)c3ccco3)CC2)c(Cl)c1)c1ccc(F)cc1 [wact-228] + CNC(=O)O/N=C/C(C)(C)SC [aldicarb],inactive: 0
10,FC(F)(F)c1cccc(-c2noc(-c3ccccn3)n2)c1 [wact-176] + CNC(=O)O/N=C/C(C)(C)SC [aldicarb],inactive: 0
11,CC[C@@]1(O)C(=O)OCc2c1cc1n(c2=O)Cc2cc3ccccc3nc2-1 + CNC(=O)O/N=C/C(C)(C)SC [aldicarb],inactive: 0
12,COC(=O)Nc1ccc(-c2ccccc2)cc1 [wact-120] + CNC(=O)O/N=C/C(C)(C)SC [aldicarb],inactive: 0
13,O=C(NCc1ccccc1Cl)C(Cl)(Cl)Cl [wact-482] + CNC(=O)O/N=C/C(C)(C)SC [aldicarb],inactive: 0
14,N/C(=N\OC(=O)c1ccc(Cl)cc1)c1cccnc1 [wact-599] + CNC(=O)O/N=C/C(C)(C)SC [aldicarb],inactive: 0
15,Clc1ccc(Cn2cc(I)cn2)cc1 [wact-554] + CNC(=O)O/N=C/C(C)(C)SC [aldicarb],inactive: 0
16,C#CCN1C(=O)S/C(=C/c2cc(C)n(-c3cccc(C(=O)OC)c3C)c2C)C1=O [wact-358] + CNC(=O)O/N=C/C(C)(C)SC [aldicarb],inactive: 0
17,CC1=C(C(=O)OC(C)C)C(c2ccc(Cl)cc2)NC(S)=N1 (configuration not stated) [wact-495] + CNC(=O)O/N=C/C(C)(C)SC [aldicarb],inactive: 0
18,Cc1ccc(-c2noc(-c3ccccn3)n2)cc1 [wact-611] + CNC(=O)O/N=C/C(C)(C)SC [aldicarb],inactive: 0

# Single entries from the entries so far.
# Entry of FC(F)(F)c1cccc(-c2noc(-c3ccccn3)n2)c1 [wact-176] + CNC(=O)O/N=C/C(C)(C)SC [aldicarb] under aldicarb interaction hit call: inactive: 0
# Entry of COc1ccc(-c2noc(-c3ccccc3)n2)cc1 [wact-574] + CNC(=O)O/N=C/C(C)(C)SC [aldicarb] under aldicarb interaction hit call: inactive: 0
